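Growth of Mycobacterium tuberculosis over 3 days (7H9 medium with glucose and tyloxapol); the read-out is not stated. Concentration: 500 µM. Higher reads as more growth inhibition (inferred: compounds with an IC50 in retests scored well above the rest). Of about 18,000 compounds tested this way, about 1,400 (7.9%) reached 50% or more in at least one test.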

The filed quantity is “Percent Effect” (%).
How 0% and 100% were set is not recorded. Most values in the screen are low, and negative values occur.
Compounds were drawn at random from those tested, without regard to their results.

- C1CCC(COC2CCNCC2)OC1 (stereo unspecified) | 6.304%
- CCc1n[nH]c(NC(=O)c2cc(C(C)=O)cs2)n1 | 1.508%
- NCc1ccncc1OCC1CCOC1 (stereo unspecified) | -4.174%
- COc1ncccc1C(=O)NCCN1CCC(C)CC1 | 11.36%
- CCC(Cn1ccnc1)NC(=O)c1cncc(Cl)c1 (stereo unspecified) | 3.333%
- Cc1nn(C)c(C(=O)NCCCn2ccnc2)c1Cl | 7.428%
- NC1(c2ccccn2)CC1 | 16%
- OCCN(CCO)Cc1c[nH]cn1 | 2.58%
- COC(=O)c1cnc(I)n1C | 16.39%
- Cc1cc(C(=O)N2CCN(C)C(=O)C2(C)C)c(C)o1 | -8.899%
- O=C(NCc1ccccn1)c1n[nH]cc1I | 25.64%
- Cc1cc(Br)cn(CC(O)COC(C)C)c1=O (stereo unspecified) | 21.36%
- CC(C)c1nc(CN(C)C(=O)c2cccc(N)n2)no1 | 9.362%
- N#Cc1ccccc1NC(N)=O | 5.126%
- Cc1cc(C)n(CCO)c(=O)n1 | -1.073%
- OCCN(CCO)CCc1ccccc1Cl | 39.4%
- COC(=O)CNC(=O)CCc1nc2ccccc2s1 | 13.89%
- CC(Nc1cccc(C(N)=O)c1)C(=O)N1CCNC1=O (stereo unspecified) | 7.706%
- c1ccc(CSc2nnc(C3CC3)[nH]2)nc1 | 26.7%
- CC(C)(C)OC(=O)Nc1ccc(NC(=O)C2CC2)cn1 | -1.325%
- C1CC(CC2COCCN2)C1 (stereo unspecified) | 2.739%
- NS(=O)(=O)c1cccc(S(=O)(=O)c2ccc(Cl)cc2)c1 | 73.05%
- COc1ccnc(N2CC(O)(C3CC3)C2)n1 | 28.14%
- Cc1cc(N2CCNCC2)n[nH]1 | -4.164%
- CSC(C)C(=O)NCc1ccccn1 (stereo unspecified) | -5.238%
- O=C(Nc1cccc(CN2CCCC2=O)c1)C1CC1 | 17.47%
- CN1CCN(C2CCN(Cc3ccccn3)CC2)CC1 | -0.8613%
- O=S1(=O)N=C(NCc2ccco2)c2ccccc21 | 12.08%
- NC(=O)C1CCN(C(=O)C2CCOCC2)CC1 | 8.264%
- COc1ccc(-n2c(C)n[nH]c2=O)cc1Cl | 7.863%
- Cc1occc1SCC(=O)NC1CCOCC1 | -4.667%
- N#CC1CC(=O)N(Cc2ccccc2)C1 (stereo unspecified) | 24.96%
- CCc1nc(CN2CCCNCC2)no1 | -11.6%
- CCOc1ncnc2c1CN(CCOC)CC2 | -9.016%
- CN(C)C(=O)CSCCCNc1ncccn1 | 24.63%
- CC1(C#N)CCN(C(=O)CCc2cccc(O)c2)CC1 | 7.802%
- CN(C)C(=O)c1csc(-c2ccccc2)n1 | 52.2%
- CC(=O)N1N=C(c2ccccn2)CC1c1ccccc1 (stereo unspecified) | -3.921%
- CCOC(=O)c1cc(CC)n(CCC#N)n1 | 2.843%
- CCN1CCCN(C(=O)Nc2ccc(C)cc2)CC1 | 12.83%
- CSCc1ccc(C(=O)N2CC(CC(N)=O)C2)cc1 | 98.84%
- N#Cc1ccc(C(=O)NCCCc2ncc[nH]2)cn1 | 4.582%
- CCS(=O)(=O)NCCNCc1ccc(Cl)cc1F | -4.044%
- CCN(CC)S(=O)(=O)c1ccc(OC)c(NC(C)=O)c1 | 12.39%
- CCN(CC)C(=O)c1cccc2cn[nH]c12 | 2.36%
- NC(=O)CCS(=O)(=O)CCN1CCc2ccccc2C1 | 24.79%
- COc1cc(C(C)=O)ccc1OC(C)C(=O)NC(C)C (stereo unspecified) | -2.748%
- CC(Sc1ncccc1Br)C(=O)N(C)CCC#N (stereo unspecified) | 31.44%
- NC(=O)c1ccc(NC(=O)CSc2ncccn2)cc1 | 26.74%
- O=C(NCCCN1CCOCC1)c1cc(Br)c[nH]1 | 42.72%
- O=C(NCc1[nH]ncc1Br)Nc1nc2c(s1)COCC2 | 69.48%
- CCN1CCN(S(=O)(=O)c2cc(C)ccc2OC)CC1 | 24.73%
- CCc1ccsc1C(=O)NCCC(=O)N(C)C | 4.954%
- NC1CC(=O)N(c2ccccc2)C1 (stereo unspecified) | 12.94%
- CC(C)N(C)C(=O)C(N)c1ccccc1 (stereo unspecified) | 7.1%

Source: ChEMBL document CHEMBL3988442, “University of Dundee, Small-Polar-MMV Screening Library” (2021).